The results in this text go back to PMC12623996.

Chains of the proteins cited; added tags and fusions are not shown. Residues count along the entry.
UniProt P02545, residues 1-646: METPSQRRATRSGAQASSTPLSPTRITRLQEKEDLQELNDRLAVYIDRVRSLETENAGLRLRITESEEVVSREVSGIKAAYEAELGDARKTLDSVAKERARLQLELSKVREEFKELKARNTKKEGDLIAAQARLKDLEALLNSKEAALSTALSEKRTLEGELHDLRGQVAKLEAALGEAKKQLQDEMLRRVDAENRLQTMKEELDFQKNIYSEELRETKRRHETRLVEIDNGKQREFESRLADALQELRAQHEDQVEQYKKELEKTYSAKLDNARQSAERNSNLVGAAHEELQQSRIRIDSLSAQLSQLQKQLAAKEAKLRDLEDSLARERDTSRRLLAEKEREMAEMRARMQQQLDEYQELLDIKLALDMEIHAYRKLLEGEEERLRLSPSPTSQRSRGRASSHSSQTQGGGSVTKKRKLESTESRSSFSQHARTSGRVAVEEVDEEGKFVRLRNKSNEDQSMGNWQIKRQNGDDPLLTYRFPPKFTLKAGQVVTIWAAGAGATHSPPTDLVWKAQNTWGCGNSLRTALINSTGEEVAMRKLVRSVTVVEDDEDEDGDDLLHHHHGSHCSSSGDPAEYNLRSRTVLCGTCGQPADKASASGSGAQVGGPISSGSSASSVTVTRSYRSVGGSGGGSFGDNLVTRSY

Test [1] addresses T1, Succinate-coenzyme A (CoA) ligase GDP-forming subunit beta (SUCLG2) (human (endogenous in LN229)) (UniProt Q96I99).
T1 sequence: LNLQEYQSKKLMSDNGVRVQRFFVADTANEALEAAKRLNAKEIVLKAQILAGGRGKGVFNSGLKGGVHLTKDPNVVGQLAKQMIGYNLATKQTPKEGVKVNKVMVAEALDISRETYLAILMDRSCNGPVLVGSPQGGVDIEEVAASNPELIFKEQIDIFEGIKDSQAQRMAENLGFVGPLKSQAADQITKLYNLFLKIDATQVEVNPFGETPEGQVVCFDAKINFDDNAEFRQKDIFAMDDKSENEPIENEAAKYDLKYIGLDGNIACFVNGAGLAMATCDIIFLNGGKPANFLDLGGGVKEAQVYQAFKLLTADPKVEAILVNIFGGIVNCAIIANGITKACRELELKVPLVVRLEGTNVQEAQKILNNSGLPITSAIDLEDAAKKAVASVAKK
Kind of test: co-IP; endogenous proteins; protein A/G beads coated with antibody (anti-SUCLG2 A8976, anti-LMNA ab226198) or control IgG, incubated with cell lysate overnight at 4 °C; western blot.

For another test, the target named is rLMNA-FLAG WT (UniProt P02545). Kind of test: co-IP; LMNA-depleted LN229 and U251 cells transiently transfected with HA-SUCLG2 and rLMNA-FLAG WT or K470R; IP with anti-FLAG antibody, western blot; interaction enhanced after treatment with NAM and TSA (Fig. S3C).
Test [2] concerns the target LMNA K470 acetylated (human (endogenous in LN229 and U251)) (UniProt P02545). The experiment in a line: pull-down; in vitro FLAG-SUCLG2 pull-down with equal amounts of K470-acetylated LMNA and LMNA WT immunoprecipitated and purified from LN229 and U251 cells; cells treated with TSA (10 mM) and NAM (10 mM) for 16 h.
Test [3] has as its target lamin A (LMNA) (human (endogenous in LN229 and U251)) (UniProt P02545). Described as above.
Test [4] concerns the target T1, Succinate-coenzyme A (CoA) ligase GDP-forming subunit beta (SUCLG2) (human (endogenous in LN229)). Kind of test: co-IP; endogenous proteins; protein A/G beads coated with antibody (anti-SUCLG2 A8976, anti-LMNA ab226198) or control IgG, incubated with cell lysate overnight at 4 °C; western blot. This is another data set of the same source. (A western blot detects proteins with antibodies after separation by electrophoresis.)

Read-outs that look alike come from different tables or passages of the source. These are yes or no findings as the source states them, for the method shown. Binding seen in cells or lysates may run through a third protein. Some entries that bind do so weakly or less than the wild type. For some assays here: Tags and fused reporters may be left off the sequences shown.

As to “lamin A (LMNA) (from UniProt P02545 1-646)”, in test [1], the binding result is given as “binds”.

B1: HA-SUCLG2 (protein, UniProt Q96I99 38-432)
chain: LNLQEYQSKKLMSDNGVRVQRFFVADTANEALEAAKRLNAKEIVLKAQILAGGRGKGVFNSGLKGGVHLTKDPNVVGQLAKQMIGYNLATKQTPKEGVKVNKVMVAEALDISRETYLAILMDRSCNGPVLVGSPQGGVDIEEVAASNPELIFKEQIDIFEGIKDSQAQRMAENLGFVGPLKSQAADQITKLYNLFLKIDATQVEVNPFGETPEGQVVCFDAKINFDDNAEFRQKDIFAMDDKSENEPIENEAAKYDLKYIGLDGNIACFVNGAGLAMATCDIIFLNGGKPANFLDLGGGVKEAQVYQAFKLLTADPKVEAILVNIFGGIVNCAIIANGITKACRELELKVPLVVRLEGTNVQEAQKILNNSGLPITSAIDLEDAAKKAVASVAKK
In the case of B1, in the test with rLMNA-FLAG WT, the binding result was “binds”.

B2: FLAG-SUCLG2 (protein, UniProt Q96I99 38-432)
chain: LNLQEYQSKKLMSDNGVRVQRFFVADTANEALEAAKRLNAKEIVLKAQILAGGRGKGVFNSGLKGGVHLTKDPNVVGQLAKQMIGYNLATKQTPKEGVKVNKVMVAEALDISRETYLAILMDRSCNGPVLVGSPQGGVDIEEVAASNPELIFKEQIDIFEGIKDSQAQRMAENLGFVGPLKSQAADQITKLYNLFLKIDATQVEVNPFGETPEGQVVCFDAKINFDDNAEFRQKDIFAMDDKSENEPIENEAAKYDLKYIGLDGNIACFVNGAGLAMATCDIIFLNGGKPANFLDLGGGVKEAQVYQAFKLLTADPKVEAILVNIFGGIVNCAIIANGITKACRELELKVPLVVRLEGTNVQEAQKILNNSGLPITSAIDLEDAAKKAVASVAKK
B2: the binding result in test [2] and in test [3] was “binds” each time.

B3: dihydrolipoamide acetyltransferase (DLAT) (protein, UniProt P10515 87-647)
chain: SLPPHQKVPLPSLSPTMQAGTIARWEKKEGDKINEGDLIAEVETDKATVGFESLEECYMAKILVAEGTRDVPIGAIICITVGKPEDIEAFKNYTLDSSAAPTPQAAPAPTPAATASPPTPSAQAPGSSYPPHMQVLLPALSPTMTMGTVQRWEKKVGEKLSEGDLLAEIETDKATIGFEVQEEGYLAKILVPEGTRDVPLGTPLCIIVEKEADISAFADYRPTEVTDLKPQVPPPTPPPVAAVPPTPQPLAPTPSAPCPATPAGPKGRVFVSPLAKKLAVEKGIDLTQVKGTGPDGRITKKDIDSFVPSKVAPAPAAVVPPTGPGMAPVPTGVFTDIPISNIRRVIAQRLMQSKQTIPHYYLSIDVNMGEVLLVRKELNKILEGRSKISVNDFIIKASALACLKVPEANSSWMDTVIRQNHVVDVSVAVSTPAGLITPIVFNAHIKGVETIANDVVSLATKAREGKLQPHEFQGGTFTISNLGMFGIKNFSAIINPPQACILAIGASEDKLVPADNEKGFDVASMMSVTLSCDHRVVDGAVGAQWLAEFRKYLEKPITMLL
With B3, in test [4], the binding result is “binds”.
